The results are deposited in PubChem (AID504749; NCATS, 2011).

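Malaria parasite (P. falciparum) lines kept in red blood cells; parasite DNA is measured by SYBR Green fluorescence after lysis, 72 h after compound addition. Each compound was titrated across a series from about 0.000037 to 29 µM. The number is the fitted AC50, the concentration giving a half-maximal change in signal; a lower value means higher potency, whether the curve shows a decrease or an increase. Calls follow the curve class and fit quality: every row here is inconclusive, covering signal-raising curves and weak, poorly fitted, partial or highest-dose-only inhibition curves.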

Values are in nM. Every entry below has the call inconclusive. These entries are mostly ones the record files as inconclusive; other results of the assay are not listed here. A potency from a partial, single-point or poor curve is only a rough figure.

| compound | tested on / at | Potency (nM) | curve as filed |
|---|---|---|---|
| `Cc1ccc(NC(=O)c2ccc(CN3CCN(C)CC3)cc2)cc1Nc1nccc(-c2cccnc2)n1` | CP266 | 19011 | inhibitor, partial curve, poor fit |
| `Cc1ccc(NC(=O)c2ccc(CN3CCN(C)CC3)cc2)cc1Nc1nccc(-c2cccnc2)n1` | CP325 | 19011 | inhibitor, single point |
| `Cc1ccc(NC(=O)c2ccc(CN3CCN(C)CC3)cc2)cc1Nc1nccc(-c2cccnc2)n1` | CP191 | 11220 | inhibitor, single point |
| `Cc1ccc(NC(=O)c2ccc(CN3CCN(C)CC3)cc2)cc1Nc1nccc(-c2cccnc2)n1` | CP185 | 15848 | inhibitor, single point |
| `Cc1ccc(NC(=O)c2ccc(CN3CCN(C)CC3)cc2)cc1Nc1nccc(-c2cccnc2)n1` | 3D7 | 10000 | inhibitor, single point |
| `Cc1ccc(NC(=O)c2ccc(CN3CCN(C)CC3)cc2)cc1Nc1nccc(-c2cccnc2)n1` | CP256 | 17782 | inhibitor, single point |
| `Cc1ccc(NC(=O)c2ccc(CN3CCN(C)CC3)cc2)cc1Nc1nccc(-c2cccnc2)n1` | CP238 | 10000 | inhibitor, single point |
| `Cc1ccc(NC(=O)c2ccc(CN3CCN(C)CC3)cc2)cc1Nc1nccc(-c2cccnc2)n1` | CP291 | 15101 | inhibitor, single point |
| `Cc1ccc(NC(=O)c2ccc(CN3CCN(C)CC3)cc2)cc1Nc1nccc(-c2cccnc2)n1` | CP201 | 19011 | inhibitor, single point |
| `Cc1ccc(NC(=O)c2ccc(CN3CCN(C)CC3)cc2)cc1Nc1nccc(-c2cccnc2)n1` | CP247 | 10000 | inhibitor, single point |
| `Clc1ccc([C@@H](OCCN2CCCCC2)c2ccccc2)cc1` | TAB113 | 10000 | inhibitor, single point |
| `Clc1ccc([C@@H](OCCN2CCCCC2)c2ccccc2)cc1` | SC27B | 10000 | inhibitor, single point |
| `Clc1ccc([C@@H](OCCN2CCCCC2)c2ccccc2)cc1` | TAB165 | 5012 | inhibitor, partial curve, poor fit |
| `Clc1ccc([C@@H](OCCN2CCCCC2)c2ccccc2)cc1` | PAD | 3981 | inhibitor, partial curve |
| `Clc1ccc([C@@H](OCCN2CCCCC2)c2ccccc2)cc1` | PC49 | 3981 | inhibitor, single point |
| `Clc1ccc([C@@H](OCCN2CCCCC2)c2ccccc2)cc1` | CP203 | 5103 | inhibitor, single point |
| `Clc1ccc([C@@H](OCCN2CCCCC2)c2ccccc2)cc1` | PC26 | 7208 | inhibitor, partial curve |
| `Clc1ccc([C@@H](OCCN2CCCCC2)c2ccccc2)cc1` | TAB109 | 10000 | inhibitor, single point |
| `Cn1cnc([N+](=O)[O-])c1Sc1ncnc2nc[nH]c12` | CP217 | 11220 | inhibitor, single point |
| `Cn1cnc([N+](=O)[O-])c1Sc1ncnc2nc[nH]c12` | CP238 | 17782 | inhibitor, single point |
| `Cn1cnc([N+](=O)[O-])c1Sc1ncnc2nc[nH]c12` | CP265 | 12589 | inhibitor, single point |
| `Cn1cnc([N+](=O)[O-])c1Sc1ncnc2nc[nH]c12` | C2A | 14125 | inhibitor, single point |
| `Cn1cnc([N+](=O)[O-])c1Sc1ncnc2nc[nH]c12` | CP185 | 10000 | inhibitor, single point |
| `Cn1cnc([N+](=O)[O-])c1Sc1ncnc2nc[nH]c12` | DIV17 | 21331 | inhibitor, single point |
| `Cn1cnc([N+](=O)[O-])c1Sc1ncnc2nc[nH]c12` | P93_24 | 11220 | inhibitor, single point |
| `Cn1cnc([N+](=O)[O-])c1Sc1ncnc2nc[nH]c12` | CP250 | 11220 | inhibitor, single point |
| `Cn1cnc([N+](=O)[O-])c1Sc1ncnc2nc[nH]c12` | ICS | 17782 | inhibitor, single point |
| `Cn1cnc([N+](=O)[O-])c1Sc1ncnc2nc[nH]c12` | N140 | 17782 | inhibitor, single point |
| `Cn1cnc([N+](=O)[O-])c1Sc1ncnc2nc[nH]c12` | GB4 | 13459 | inhibitor, single point |
| `Cn1cnc([N+](=O)[O-])c1Sc1ncnc2nc[nH]c12` | PC26 | 15101 | inhibitor, partial curve, poor fit |
| `Cn1cnc([N+](=O)[O-])c1Sc1ncnc2nc[nH]c12` | P94_40 | 12589 | inhibitor, single point |
| `Cn1cnc([N+](=O)[O-])c1Sc1ncnc2nc[nH]c12` | 7G8 | 11220 | inhibitor, partial curve, poor fit |
| `Cn1cnc([N+](=O)[O-])c1Sc1ncnc2nc[nH]c12` | PC15 | 17782 | inhibitor, single point |
| `Cn1cnc([N+](=O)[O-])c1Sc1ncnc2nc[nH]c12` | W2 | 19011 | inhibitor, single point |
| `Cn1cnc([N+](=O)[O-])c1Sc1ncnc2nc[nH]c12` | ATS189 | 17782 | inhibitor, single point |
| `Cn1cnc([N+](=O)[O-])c1Sc1ncnc2nc[nH]c12` | CP194 | 21331 | inhibitor, partial curve, poor fit |
| `Cn1cnc([N+](=O)[O-])c1Sc1ncnc2nc[nH]c12` | CP191 | 5012 | inhibitor, partial curve |

For reference, 4 entries once more:

{"compound": "Cn1cnc([N+](=O)[O-])c1Sc1ncnc2nc[nH]c12", "tested on / at": "P93_24", "Potency (nM)": "11220", "curve as filed": "inhibitor, single point"}
{"compound": "Cc1ccc(NC(=O)c2ccc(CN3CCN(C)CC3)cc2)cc1Nc1nccc(-c2cccnc2)n1", "tested on / at": "CP185", "Potency (nM)": "15848", "curve as filed": "inhibitor, single point"}
{"compound": "Cn1cnc([N+](=O)[O-])c1Sc1ncnc2nc[nH]c12", "tested on / at": "CP265", "Potency (nM)": "12589", "curve as filed": "inhibitor, single point"}
{"compound": "Cn1cnc([N+](=O)[O-])c1Sc1ncnc2nc[nH]c12", "tested on / at": "GB4", "Potency (nM)": "13459", "curve as filed": "inhibitor, single point"}